In US6649172B2, “Amphipathic aldehydes and their uses as adjuvants and immunoeffectors” (Corixa Corporation, priority 2000, dated 2003):
For at least one compound, name, drawing or mass did not settle the structure.

Test system: recombinant hepatitis B surface antigen (rHBsAg)
Assay: Serum antibody titers to rHBsAg by ELISA after vaccination (Example 8)
Format: in vivo
Conditions: female BALB/c mice, s.c. days 0 and 14, serum 11 days post-secondary vaccination
Description: Compounds 40, 42, and 44, were evaluated for adjuvant activity with a model hepatitis B vaccine. These compounds were prepared as aqueous formulations in PBS and admixed with recombinant hepatitis B surface antigen (rHBsAg) with or without the AGP adjuvant 99. Compound 99 was solubilized in an aqueous formulation containing dipalmitoylphosphatidyl choline in water. Mice were administered the vaccines on days 0 and 14 by subcutaneous (s.c.) injection. The antigen-specific immune response to rHBsAg was evaluated by measurement of serum antibody and cytotoxic T lymphocytes (CTL). The results shown in Table 3 confirm the adjuvant activity of compounds of 40, 42, and 44.

[1] = adjuvant dose 250 μg with rHBsAg
[2] = adjuvant dose 500 μg with rHBsAg
[3] = adjuvant dose 1000 μg with rHBsAg

O=Cc1cc(OCc2ccc(C(=O)O)cc2)ccc1OCCCC(=O)O [Compound 44]
Gross Geometric Serum Titers IGG [1]: 15X (15X = 1000-1500)
Gross Geometric Serum Titers IgG1 [1]: 500X (500X = 25,001-50,000)
Gross Geometric Serum Titers IgG2a [1]: 15X (15X = 1000-1500)
Gross Geometric Serum Titers IgG2b [1]: 10X (10X = 801-1000)
Gross Geometric Serum Titers IGG [2]: 100X (100X = 3001-10,000)
Gross Geometric Serum Titers IgG1 [2]: 30X (30X = 1500-3000)
Gross Geometric Serum Titers IgG2a [2]: 15X (15X = 1000-1500)
Gross Geometric Serum Titers IgG2b [2]: 10X (10X = 801-1000)
Gross Geometric Serum Titers IGG [3]: 100X (100X = 3001-10,000)
Gross Geometric Serum Titers IgG1 [3]: 15X (15X = 1000-1500)
Gross Geometric Serum Titers IgG2a [3]: 15X (15X = 1000-1500)
Gross Geometric Serum Titers IgG2b [3]: 10X (10X = 801-1000)
